No constants are given. Whether binding was seen depends on the method and setting. In cells and extracts the contact can be indirect. Here binding means that the protein was enriched with, or labelled near, the bait; the list need not be complete.

Chains of the proteins cited; added tags and fusions are not shown. Residues count along the entry.
UniProt P02545, residues 1-646: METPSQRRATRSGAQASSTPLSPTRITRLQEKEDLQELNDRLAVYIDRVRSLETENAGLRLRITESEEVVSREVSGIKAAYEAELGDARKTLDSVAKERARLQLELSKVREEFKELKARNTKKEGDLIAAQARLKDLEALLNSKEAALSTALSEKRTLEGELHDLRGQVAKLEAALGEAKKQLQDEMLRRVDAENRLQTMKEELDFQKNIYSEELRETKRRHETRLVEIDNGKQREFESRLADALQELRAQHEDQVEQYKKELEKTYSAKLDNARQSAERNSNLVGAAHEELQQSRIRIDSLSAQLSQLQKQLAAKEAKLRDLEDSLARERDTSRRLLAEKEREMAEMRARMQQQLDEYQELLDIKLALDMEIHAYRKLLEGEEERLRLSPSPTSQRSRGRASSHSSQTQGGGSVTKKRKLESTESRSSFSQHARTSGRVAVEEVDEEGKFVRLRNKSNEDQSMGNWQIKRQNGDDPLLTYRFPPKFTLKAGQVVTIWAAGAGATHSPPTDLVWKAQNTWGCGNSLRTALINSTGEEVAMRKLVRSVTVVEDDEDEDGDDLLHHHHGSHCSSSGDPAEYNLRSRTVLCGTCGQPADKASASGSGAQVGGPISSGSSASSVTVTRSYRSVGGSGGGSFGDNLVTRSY
UniProt P14136: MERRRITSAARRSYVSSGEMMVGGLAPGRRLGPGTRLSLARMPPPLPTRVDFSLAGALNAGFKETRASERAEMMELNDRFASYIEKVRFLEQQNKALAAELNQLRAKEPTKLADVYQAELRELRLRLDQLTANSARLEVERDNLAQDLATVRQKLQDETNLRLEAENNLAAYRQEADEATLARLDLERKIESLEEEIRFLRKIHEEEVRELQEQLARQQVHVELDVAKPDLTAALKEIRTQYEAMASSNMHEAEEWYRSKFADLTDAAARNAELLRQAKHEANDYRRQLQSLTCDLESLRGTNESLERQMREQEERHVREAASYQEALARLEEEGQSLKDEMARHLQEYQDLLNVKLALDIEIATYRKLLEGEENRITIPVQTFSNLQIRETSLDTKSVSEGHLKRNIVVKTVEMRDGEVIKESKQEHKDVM
UniProt Q16143: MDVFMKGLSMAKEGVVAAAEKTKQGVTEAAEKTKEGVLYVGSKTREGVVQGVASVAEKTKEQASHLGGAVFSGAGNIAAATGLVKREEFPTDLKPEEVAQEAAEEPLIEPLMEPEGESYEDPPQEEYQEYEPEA
UniProt Q9Y4G6: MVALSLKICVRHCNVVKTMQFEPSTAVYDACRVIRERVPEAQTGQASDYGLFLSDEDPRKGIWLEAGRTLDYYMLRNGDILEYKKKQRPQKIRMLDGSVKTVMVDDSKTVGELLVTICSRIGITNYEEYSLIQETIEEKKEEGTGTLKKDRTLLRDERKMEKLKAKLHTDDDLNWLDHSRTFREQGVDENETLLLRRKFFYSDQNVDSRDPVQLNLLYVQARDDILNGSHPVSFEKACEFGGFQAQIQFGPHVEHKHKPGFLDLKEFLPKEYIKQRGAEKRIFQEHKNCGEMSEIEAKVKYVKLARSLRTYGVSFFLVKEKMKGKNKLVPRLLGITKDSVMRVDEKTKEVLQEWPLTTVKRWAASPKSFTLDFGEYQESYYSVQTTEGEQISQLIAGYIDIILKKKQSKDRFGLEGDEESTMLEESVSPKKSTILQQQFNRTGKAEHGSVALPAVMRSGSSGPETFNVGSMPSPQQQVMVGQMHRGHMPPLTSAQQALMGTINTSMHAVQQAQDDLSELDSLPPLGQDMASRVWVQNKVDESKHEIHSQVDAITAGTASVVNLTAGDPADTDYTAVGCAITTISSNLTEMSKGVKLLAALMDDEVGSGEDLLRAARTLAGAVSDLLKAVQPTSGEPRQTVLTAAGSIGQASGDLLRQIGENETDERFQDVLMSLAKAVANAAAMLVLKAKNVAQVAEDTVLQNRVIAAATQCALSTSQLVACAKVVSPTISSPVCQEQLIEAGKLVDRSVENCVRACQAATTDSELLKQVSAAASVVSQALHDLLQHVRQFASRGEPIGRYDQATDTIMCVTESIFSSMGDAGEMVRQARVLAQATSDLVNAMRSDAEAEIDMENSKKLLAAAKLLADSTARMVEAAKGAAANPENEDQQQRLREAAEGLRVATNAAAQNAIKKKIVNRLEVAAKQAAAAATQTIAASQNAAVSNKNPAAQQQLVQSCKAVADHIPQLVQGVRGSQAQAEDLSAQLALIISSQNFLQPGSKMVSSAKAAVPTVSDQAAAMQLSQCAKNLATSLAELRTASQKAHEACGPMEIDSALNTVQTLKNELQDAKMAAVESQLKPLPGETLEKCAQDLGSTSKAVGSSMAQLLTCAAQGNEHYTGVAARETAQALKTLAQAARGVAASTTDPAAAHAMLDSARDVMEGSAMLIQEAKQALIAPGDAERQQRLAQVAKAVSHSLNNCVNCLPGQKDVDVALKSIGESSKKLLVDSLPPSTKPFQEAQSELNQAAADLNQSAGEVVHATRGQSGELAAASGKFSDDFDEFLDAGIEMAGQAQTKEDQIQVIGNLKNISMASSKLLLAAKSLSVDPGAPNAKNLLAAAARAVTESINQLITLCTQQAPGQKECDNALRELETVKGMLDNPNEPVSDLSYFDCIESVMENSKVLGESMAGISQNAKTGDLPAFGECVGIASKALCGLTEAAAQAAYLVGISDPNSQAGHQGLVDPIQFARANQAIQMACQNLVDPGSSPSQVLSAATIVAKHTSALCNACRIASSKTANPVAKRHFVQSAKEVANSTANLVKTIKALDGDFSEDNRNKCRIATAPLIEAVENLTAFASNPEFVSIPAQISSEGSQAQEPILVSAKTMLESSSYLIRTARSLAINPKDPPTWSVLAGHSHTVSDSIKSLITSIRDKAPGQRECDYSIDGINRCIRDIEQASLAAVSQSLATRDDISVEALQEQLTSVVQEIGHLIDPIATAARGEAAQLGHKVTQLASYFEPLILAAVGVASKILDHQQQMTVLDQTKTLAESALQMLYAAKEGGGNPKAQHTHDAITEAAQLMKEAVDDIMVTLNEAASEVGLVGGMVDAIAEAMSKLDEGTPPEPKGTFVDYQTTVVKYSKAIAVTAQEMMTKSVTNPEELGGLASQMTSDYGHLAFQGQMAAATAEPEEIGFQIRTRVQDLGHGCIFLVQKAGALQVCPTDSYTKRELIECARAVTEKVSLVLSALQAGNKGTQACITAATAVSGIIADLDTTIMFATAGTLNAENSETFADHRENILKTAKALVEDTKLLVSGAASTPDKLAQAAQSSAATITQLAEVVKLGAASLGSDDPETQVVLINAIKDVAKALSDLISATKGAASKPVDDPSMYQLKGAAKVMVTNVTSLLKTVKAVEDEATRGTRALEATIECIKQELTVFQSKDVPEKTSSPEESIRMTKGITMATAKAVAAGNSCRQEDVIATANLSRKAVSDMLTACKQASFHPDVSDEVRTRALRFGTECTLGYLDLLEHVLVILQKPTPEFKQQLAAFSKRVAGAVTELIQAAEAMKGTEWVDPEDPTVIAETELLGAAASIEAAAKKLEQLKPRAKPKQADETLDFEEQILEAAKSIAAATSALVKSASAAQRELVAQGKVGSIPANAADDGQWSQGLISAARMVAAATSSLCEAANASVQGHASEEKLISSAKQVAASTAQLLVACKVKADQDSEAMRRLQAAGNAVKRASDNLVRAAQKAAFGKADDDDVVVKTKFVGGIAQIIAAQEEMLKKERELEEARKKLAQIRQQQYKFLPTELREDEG
UniProt P78559: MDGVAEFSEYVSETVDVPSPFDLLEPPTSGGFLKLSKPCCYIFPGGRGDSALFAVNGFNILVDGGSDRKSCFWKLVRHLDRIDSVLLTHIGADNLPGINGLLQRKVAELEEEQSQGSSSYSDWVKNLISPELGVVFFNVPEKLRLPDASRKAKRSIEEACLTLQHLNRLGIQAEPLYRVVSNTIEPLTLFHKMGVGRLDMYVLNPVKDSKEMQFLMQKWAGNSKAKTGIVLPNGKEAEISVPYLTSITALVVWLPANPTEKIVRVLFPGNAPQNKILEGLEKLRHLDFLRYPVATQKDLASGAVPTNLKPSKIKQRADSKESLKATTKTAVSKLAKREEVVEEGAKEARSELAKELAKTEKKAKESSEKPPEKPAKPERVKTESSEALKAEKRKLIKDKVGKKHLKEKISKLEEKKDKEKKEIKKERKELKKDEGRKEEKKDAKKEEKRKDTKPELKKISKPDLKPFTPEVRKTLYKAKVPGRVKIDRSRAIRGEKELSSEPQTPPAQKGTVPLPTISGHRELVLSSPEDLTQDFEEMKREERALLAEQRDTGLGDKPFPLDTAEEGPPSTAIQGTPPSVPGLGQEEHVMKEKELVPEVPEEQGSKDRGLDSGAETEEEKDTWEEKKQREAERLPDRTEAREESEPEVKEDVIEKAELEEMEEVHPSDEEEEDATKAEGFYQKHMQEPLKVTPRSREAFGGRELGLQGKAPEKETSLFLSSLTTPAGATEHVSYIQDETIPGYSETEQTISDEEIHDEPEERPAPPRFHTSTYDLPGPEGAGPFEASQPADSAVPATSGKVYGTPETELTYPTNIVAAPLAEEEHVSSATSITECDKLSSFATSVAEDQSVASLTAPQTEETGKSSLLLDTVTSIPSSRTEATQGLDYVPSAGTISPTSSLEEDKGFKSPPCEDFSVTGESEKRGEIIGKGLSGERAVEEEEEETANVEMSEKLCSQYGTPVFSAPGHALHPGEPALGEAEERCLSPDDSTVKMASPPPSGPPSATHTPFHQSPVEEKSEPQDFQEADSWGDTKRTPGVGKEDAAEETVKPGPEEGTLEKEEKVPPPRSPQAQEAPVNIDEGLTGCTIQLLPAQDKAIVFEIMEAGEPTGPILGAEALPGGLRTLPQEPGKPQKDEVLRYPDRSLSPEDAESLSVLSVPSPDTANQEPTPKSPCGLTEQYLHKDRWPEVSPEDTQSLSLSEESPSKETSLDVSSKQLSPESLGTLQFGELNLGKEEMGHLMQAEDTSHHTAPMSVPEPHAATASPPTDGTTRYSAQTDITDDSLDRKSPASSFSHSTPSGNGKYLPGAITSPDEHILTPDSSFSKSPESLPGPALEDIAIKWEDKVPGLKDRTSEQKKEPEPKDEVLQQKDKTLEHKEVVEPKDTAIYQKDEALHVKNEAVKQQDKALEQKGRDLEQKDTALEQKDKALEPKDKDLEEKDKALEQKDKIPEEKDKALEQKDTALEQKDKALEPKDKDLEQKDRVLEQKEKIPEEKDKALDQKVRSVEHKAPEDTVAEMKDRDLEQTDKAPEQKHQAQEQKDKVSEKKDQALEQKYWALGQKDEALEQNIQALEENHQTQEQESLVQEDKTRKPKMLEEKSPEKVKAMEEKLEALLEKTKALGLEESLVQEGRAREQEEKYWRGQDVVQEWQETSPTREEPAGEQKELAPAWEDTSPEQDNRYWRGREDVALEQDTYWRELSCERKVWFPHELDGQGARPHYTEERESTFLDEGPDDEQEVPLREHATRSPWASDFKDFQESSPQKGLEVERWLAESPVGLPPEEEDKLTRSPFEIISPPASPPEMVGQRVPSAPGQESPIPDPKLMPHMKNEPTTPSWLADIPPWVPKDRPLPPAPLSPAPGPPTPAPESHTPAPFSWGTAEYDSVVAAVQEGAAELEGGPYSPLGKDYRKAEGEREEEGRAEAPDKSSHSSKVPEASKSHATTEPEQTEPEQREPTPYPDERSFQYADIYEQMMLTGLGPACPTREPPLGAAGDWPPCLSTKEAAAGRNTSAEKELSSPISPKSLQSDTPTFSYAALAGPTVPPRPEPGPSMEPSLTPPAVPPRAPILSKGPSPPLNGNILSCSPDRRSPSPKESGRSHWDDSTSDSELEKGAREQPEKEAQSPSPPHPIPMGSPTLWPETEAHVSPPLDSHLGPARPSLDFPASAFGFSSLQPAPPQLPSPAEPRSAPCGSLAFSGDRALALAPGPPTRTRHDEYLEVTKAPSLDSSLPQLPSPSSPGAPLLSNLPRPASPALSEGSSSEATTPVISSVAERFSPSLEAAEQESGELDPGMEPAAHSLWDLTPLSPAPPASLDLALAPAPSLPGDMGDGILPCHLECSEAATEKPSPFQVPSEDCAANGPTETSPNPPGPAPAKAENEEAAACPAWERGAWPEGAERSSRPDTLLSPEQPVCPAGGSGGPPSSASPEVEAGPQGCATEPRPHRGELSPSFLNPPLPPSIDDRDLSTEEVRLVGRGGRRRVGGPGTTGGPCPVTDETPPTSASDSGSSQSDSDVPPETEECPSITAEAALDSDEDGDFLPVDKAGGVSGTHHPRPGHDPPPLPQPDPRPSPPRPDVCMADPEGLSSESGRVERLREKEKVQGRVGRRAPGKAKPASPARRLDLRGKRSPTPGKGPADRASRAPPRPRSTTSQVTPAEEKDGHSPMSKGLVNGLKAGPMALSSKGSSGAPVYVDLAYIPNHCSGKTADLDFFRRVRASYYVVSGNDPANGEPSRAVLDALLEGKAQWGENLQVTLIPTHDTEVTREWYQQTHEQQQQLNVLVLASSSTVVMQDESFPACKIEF

The assay deals with amyloid β peptide, Aβ1-42 (human (endogenous in hippocampus)) (UniProt P05067). Put plainly: affinity purification with mass spectrometry; pools of caudal hippocampus (3 AD, 3 NC); homogenate on Protein-G magnetic beads coated with antibody to total tau (ab80579) or to Aβ (ab11132); rinsed 3x, eluted; 1% sarcosyl-insoluble pellet resolved on SDS gel, slices digested, LC-MS/MS.
Regarding α-enolase (from UniProt P06733 1-434), the binding entry is on record as “binds”.

As to lamin A/C (from UniProt P02545 1-646), the binding entry is on record as “binds”.

Take “Na+/K+ transporter ATPase α2 (from UniProt P50993 1-1020)”: the binding result is reported as “binds”.

For vinculin (from UniProt P18206-2), the binding result is given as “binds”.

For the substance “microtubule-associated protein 1B (from UniProt P46821 1-2468)”, the binding result is given as “binds”.

As for “amine oxidase B (from UniProt P27338 1-520)”, the binding entry is recorded as “binds”.

As for synemin (from UniProt O15061 1-1565), the binding entry is reported as “binds”.

With GFAP (from UniProt P14136 1-432), the binding entry was “binds”.

Regarding β synuclein (from UniProt Q16143 1-134), the binding result is “binds”.

With UBA-1 (from UniProt P22314 1-1058), the binding entry is listed as “binds”.

Take talin 2 (from UniProt Q9Y4G6 1-2542): the binding entry was “binds”.

For “excitatory amino acid transporter 2 (from UniProt P43004 1-574)”, the binding result was “binds”.

Regarding “microtubule-associated protein MAP1A (from UniProt P78559 1-2803)”, the binding result is “binds”.

For the origin of these results see publication PMC5013017.
